PubChem BioAssay AID1159578 | Peter MacCallum Cancer Centre – 2015
Here is one part, drawn at random, of about 18,000 reagents. About 1,030 of them (5.7%) were called active. 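Inactive calls also include pools with fewer than 3300 nuclei, whose migration was not assessed.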 Raw values are not corrected between plates. Unmarked entries are inactive. Reagent sequences are not shown.

- Purpose: 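Genome-wide hunt for genes controlling movement of lymphatic endothelial cells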 (primary screen)
- Cells: human lymphatic endothelial cells
- Knock-down reagent: siRNA pool against human genes, 40 nM
- Time to read-out: 48 h after transfection
- Read-out: 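Cells stained with dye and imaged after a scratch; covered wound area and nuclei counted, duplicates averaged, migration set against mock wells and turned into a robust z-score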
- Direction: migration robust z-score: higher = faster migration into the scratch; migration relative to mock: higher = more scratch area covered than mock; nuclei per well: higher = more cells in the well
- Call rule: 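Pools averaging fewer than 3300 nuclei are never called; remaining pools count as changed when migration robust z lies outside -2 to 2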
- Meaning of the calls: active = migration changed; inactive = no migration change, or too few cells

| Target gene | migration robust z-score | migration class with cell-count check | migration relative to mock | nuclei per well, duplicate mean |
| --- | --- | --- | --- | --- |
| FOXR2 | 0.44 | migration z between -2 and 2; enough cells | 0.89 | 5526 |
| SETD2 | -2.42 (active) | migration z below -2; enough cells | 0.34 | 4340 |
| UGT1A9 | -3.45 | under 3300 nuclei; migration not judged | 0.14 | 3177 |
| CELA3A | 0.29 | migration z between -2 and 2; enough cells | 0.86 | 5357 |
| SIGLEC5 | -0.15 | migration z between -2 and 2; enough cells | 0.85 | 4971 |
| NRN1L | 0.46 | migration z between -2 and 2; enough cells | 1 | 4774 |
| CCDC185 | -0.25 | migration z between -2 and 2; enough cells | 0.82 | 6810 |
| TTC12 | -0.46 | migration z between -2 and 2; enough cells | 0.76 | 6524 |
| DAW1 | -0.24 | migration z between -2 and 2; enough cells | 0.82 | 6146 |
| MTCP1 | 0.89 | migration z between -2 and 2; enough cells | 1.12 | 7500 |
| HMCN2 | 0.66 | migration z between -2 and 2; enough cells | 1.06 | 5742 |
| ANAPC11 | 0.96 | migration z between -2 and 2; enough cells | 0.99 | 3702 |
| DDX11 | 0.08 | migration z between -2 and 2; enough cells | 0.82 | 5755 |
| HMMR | 1.9 | migration z between -2 and 2; enough cells | 1.17 | 6310 |
| OCIAD1 | 0.48 | migration z between -2 and 2; enough cells | 1.01 | 6056 |
| WFDC1 | 2.42 (active) | migration z above 2; enough cells | 1.52 | 5177 |
| VMA22 | -0.5 | migration z between -2 and 2; enough cells | 0.76 | 5198 |
| OR5T3 | 0.02 | migration z between -2 and 2; enough cells | 0.89 | 4564 |
| HEY2 | -0.16 | migration z between -2 and 2; enough cells | 0.78 | 6100 |
| SLC32A1 | 0.6 | migration z between -2 and 2; enough cells | 1.04 | 5382 |
| KRT14 | -0.46 | migration z between -2 and 2; enough cells | 0.77 | 5958 |
| SLC35F6 | -0.24 | migration z between -2 and 2; enough cells | 0.82 | 5684 |
| C2CD3 | -1.17 | migration z between -2 and 2; enough cells | 0.58 | 6311 |
| OR14J1 | -1.75 | migration z between -2 and 2; enough cells | 0.43 | 4896 |
| SCOC | 0.64 | migration z between -2 and 2; enough cells | 1.05 | 6726 |
| IZUMO1R | -0.72 | migration z between -2 and 2; enough cells | 0.7 | 4451 |
| CCL5 | 0.94 | migration z between -2 and 2; enough cells | 1.12 | 5902 |
| ASB10 | 1.04 | migration z between -2 and 2; enough cells | 1.01 | 5292 |
| CROT | -0.56 | migration z between -2 and 2; enough cells | 0.74 | 6483 |
| ADCK2 | -2.12 (active) | migration z below -2; enough cells | 0.4 | 4977 |
| ADGRE3 | 0.39 | migration z between -2 and 2; enough cells | 0.88 | 5051 |
| ZBTB17 | 0.03 | migration z between -2 and 2; enough cells | 0.81 | 4532 |
| ASCC3 | 0.26 | migration z between -2 and 2; enough cells | 0.86 | 5575 |
| TOX4 | 0.18 | migration z between -2 and 2; enough cells | 0.93 | 5014 |
| FKBP4 | -0.16 | migration z between -2 and 2; enough cells | 0.78 | 4626 |
| JAG1 | 0.16 | migration z between -2 and 2; enough cells | 0.84 | 4996 |
| SCIN | 2.38 (active) | migration z above 2; enough cells | 1.5 | 6160 |
| ZNF676 | -1.41 | migration z between -2 and 2; enough cells | 0.52 | 6109 |
| DCX | 0 | migration z between -2 and 2; enough cells | 0.88 | 6237 |
| TMEM59L | -3.06 | under 3300 nuclei; migration not judged | 0.11 | 2207 |
| ZBTB26 | -0.05 | migration z between -2 and 2; enough cells | 0.87 | 5786 |
| DNAH6 | 0.22 | migration z between -2 and 2; enough cells | 0.94 | 6350 |
| LRIT3 | 1.15 | migration z between -2 and 2; enough cells | 1.19 | 5485 |
| EPHX1 | 0.7 | migration z between -2 and 2; enough cells | 0.94 | 5326 |
| MPP2 | -5.55 | under 3300 nuclei; migration not judged | -0.26 | 2384 |
| SLC9A3 | 1.03 | migration z between -2 and 2; enough cells | 1 | 4776 |
| FFAR4 | 0.86 | migration z between -2 and 2; enough cells | 0.97 | 6408 |
| NDUFS2 | -1.02 | migration z between -2 and 2; enough cells | 0.61 | 6912 |
| SPATA32 | 1.4 | migration z between -2 and 2; enough cells | 1.25 | 5757 |
| FOSB | -1.25 | migration z between -2 and 2; enough cells | 0.56 | 6034 |
| SLC25A15 | -2.41 | under 3300 nuclei; migration not judged | 0.34 | 3290 |
| KCNV2 | 0.24 | migration z between -2 and 2; enough cells | 0.85 | 5066 |
| SMARCAL1 | -1.19 | migration z between -2 and 2; enough cells | 0.57 | 4824 |
| CIRBP-AS1 | -0.26 | migration z between -2 and 2; enough cells | 0.82 | 6150 |
| BFAR | 0.99 | migration z between -2 and 2; enough cells | 1 | 6511 |
| ABCB1 | -0.34 | migration z between -2 and 2; enough cells | 0.74 | 4882 |
| CCL2 | -0.56 | migration z between -2 and 2; enough cells | 0.74 | 4798 |

Just “migration robust z-score” (7 entries from above):
CROT	-0.56
ADCK2	-2.12 (active)
ADGRE3	0.39
ZBTB17	0.03
ASCC3	0.26
TOX4	0.18
FKBP4	-0.16
